Results as given in the supplement of paper PMC10849652.
The other results are listed elsewhere or left out.

Protein sequences, listed by entry. Tags and fused reporters are not part of them. Lines headed by an entry give the natural chain unless they say otherwise; changes in a name come on top.
UniProt Q8NA72: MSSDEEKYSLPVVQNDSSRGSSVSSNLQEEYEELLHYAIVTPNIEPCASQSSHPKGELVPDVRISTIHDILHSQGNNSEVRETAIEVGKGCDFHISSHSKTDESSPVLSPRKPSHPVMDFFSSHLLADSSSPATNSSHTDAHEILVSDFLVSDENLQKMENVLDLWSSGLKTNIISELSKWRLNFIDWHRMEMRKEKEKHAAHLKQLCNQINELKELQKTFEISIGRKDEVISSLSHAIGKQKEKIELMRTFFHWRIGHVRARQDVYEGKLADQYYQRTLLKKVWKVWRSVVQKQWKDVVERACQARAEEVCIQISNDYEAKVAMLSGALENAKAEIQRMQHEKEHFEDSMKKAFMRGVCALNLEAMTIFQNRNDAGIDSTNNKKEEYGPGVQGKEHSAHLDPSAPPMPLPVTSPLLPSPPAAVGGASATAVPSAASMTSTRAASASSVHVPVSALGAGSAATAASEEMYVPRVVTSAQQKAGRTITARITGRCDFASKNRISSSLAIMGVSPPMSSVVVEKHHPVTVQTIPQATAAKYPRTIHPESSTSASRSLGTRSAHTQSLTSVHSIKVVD
UniProt Q8TCS8: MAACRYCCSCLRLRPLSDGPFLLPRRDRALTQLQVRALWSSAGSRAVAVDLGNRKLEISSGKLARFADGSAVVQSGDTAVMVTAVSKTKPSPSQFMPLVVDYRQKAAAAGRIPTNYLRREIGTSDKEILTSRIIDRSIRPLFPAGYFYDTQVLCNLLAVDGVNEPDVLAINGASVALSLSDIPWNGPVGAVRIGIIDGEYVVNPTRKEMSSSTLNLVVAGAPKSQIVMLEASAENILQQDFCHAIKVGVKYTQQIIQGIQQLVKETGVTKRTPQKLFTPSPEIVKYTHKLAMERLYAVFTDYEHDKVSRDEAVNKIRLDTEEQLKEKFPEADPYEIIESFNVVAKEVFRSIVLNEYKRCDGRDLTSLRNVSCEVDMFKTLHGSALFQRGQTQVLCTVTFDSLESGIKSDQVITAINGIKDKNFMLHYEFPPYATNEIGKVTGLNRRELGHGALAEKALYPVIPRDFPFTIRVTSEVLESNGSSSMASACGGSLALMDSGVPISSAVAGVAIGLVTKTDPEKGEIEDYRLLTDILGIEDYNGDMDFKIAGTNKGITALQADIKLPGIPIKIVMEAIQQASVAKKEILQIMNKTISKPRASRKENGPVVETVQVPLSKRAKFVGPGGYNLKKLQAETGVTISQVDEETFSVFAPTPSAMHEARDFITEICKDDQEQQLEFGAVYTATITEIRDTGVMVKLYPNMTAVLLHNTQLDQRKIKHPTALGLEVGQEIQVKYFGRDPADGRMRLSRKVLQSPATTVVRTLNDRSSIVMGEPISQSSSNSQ
UniProt Q8WZA1: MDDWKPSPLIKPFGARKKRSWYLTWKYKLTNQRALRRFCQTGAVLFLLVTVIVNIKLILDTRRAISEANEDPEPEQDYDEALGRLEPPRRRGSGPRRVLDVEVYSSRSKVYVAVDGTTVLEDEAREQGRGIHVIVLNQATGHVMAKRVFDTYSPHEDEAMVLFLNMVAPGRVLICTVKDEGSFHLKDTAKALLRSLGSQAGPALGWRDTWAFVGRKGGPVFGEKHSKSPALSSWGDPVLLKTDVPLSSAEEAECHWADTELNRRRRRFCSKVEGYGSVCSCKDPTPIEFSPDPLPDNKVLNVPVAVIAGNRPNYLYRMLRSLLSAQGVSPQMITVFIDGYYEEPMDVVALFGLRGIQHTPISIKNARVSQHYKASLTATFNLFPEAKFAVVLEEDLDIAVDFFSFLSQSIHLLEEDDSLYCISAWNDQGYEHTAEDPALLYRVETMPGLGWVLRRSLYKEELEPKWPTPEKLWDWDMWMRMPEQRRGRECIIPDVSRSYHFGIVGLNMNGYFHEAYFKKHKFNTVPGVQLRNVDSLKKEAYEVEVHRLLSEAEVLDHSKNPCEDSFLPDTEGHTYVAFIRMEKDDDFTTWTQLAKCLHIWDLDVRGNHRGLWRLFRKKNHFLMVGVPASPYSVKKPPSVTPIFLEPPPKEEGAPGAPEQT
UniProt Q6P1K2: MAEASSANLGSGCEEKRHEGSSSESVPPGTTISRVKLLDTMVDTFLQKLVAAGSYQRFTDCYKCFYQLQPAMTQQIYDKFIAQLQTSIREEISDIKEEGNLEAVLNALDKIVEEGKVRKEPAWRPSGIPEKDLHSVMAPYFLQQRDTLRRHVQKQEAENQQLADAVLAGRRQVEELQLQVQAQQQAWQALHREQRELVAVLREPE
UniProt P0CAP2, whole entry, looked up: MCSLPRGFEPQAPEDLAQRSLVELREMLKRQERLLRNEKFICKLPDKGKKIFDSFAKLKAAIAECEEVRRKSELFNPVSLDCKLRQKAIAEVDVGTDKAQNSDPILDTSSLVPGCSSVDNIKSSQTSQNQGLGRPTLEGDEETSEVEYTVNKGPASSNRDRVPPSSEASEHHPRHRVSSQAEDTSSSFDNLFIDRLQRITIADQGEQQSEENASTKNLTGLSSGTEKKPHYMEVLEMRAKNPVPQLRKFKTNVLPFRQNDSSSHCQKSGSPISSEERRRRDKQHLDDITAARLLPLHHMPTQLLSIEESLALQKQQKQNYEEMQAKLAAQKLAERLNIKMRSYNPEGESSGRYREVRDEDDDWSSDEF
UniProt O95707: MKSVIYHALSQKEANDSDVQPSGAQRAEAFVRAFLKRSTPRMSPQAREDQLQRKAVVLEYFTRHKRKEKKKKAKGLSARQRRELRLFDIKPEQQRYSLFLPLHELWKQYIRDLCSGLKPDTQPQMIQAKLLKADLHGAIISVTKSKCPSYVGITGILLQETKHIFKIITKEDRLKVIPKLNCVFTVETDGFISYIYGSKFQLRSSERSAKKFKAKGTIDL
UniProt P23284: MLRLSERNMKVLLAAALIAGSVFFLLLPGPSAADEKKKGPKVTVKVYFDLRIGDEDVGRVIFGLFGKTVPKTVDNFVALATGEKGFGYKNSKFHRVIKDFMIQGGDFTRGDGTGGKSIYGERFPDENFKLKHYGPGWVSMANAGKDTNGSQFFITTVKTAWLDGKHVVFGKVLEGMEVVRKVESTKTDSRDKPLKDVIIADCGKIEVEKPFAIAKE
UniProt Q9HAB8: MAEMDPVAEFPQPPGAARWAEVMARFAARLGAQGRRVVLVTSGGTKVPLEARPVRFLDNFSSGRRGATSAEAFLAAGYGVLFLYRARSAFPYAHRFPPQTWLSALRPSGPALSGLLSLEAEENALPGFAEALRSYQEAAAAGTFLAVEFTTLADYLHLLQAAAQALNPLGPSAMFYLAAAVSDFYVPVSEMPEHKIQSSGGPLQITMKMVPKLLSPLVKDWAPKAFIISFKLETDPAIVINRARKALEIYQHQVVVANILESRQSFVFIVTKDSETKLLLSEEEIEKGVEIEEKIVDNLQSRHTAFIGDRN
UniProt Q06203, whole entry, looked up: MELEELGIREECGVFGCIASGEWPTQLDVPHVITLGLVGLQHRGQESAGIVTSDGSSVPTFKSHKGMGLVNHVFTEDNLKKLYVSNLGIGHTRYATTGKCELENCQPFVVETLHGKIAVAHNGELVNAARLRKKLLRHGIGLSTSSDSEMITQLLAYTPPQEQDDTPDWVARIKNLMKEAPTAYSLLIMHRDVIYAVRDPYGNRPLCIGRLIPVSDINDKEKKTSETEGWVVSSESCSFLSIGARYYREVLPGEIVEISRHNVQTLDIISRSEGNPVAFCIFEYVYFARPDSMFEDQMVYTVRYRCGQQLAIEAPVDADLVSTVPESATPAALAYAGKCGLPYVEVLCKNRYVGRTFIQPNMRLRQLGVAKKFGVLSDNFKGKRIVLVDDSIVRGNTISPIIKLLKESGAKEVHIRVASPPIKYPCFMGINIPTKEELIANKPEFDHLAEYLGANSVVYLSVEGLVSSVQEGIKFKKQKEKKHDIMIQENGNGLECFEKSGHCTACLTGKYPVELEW
UniProt Q9NW08: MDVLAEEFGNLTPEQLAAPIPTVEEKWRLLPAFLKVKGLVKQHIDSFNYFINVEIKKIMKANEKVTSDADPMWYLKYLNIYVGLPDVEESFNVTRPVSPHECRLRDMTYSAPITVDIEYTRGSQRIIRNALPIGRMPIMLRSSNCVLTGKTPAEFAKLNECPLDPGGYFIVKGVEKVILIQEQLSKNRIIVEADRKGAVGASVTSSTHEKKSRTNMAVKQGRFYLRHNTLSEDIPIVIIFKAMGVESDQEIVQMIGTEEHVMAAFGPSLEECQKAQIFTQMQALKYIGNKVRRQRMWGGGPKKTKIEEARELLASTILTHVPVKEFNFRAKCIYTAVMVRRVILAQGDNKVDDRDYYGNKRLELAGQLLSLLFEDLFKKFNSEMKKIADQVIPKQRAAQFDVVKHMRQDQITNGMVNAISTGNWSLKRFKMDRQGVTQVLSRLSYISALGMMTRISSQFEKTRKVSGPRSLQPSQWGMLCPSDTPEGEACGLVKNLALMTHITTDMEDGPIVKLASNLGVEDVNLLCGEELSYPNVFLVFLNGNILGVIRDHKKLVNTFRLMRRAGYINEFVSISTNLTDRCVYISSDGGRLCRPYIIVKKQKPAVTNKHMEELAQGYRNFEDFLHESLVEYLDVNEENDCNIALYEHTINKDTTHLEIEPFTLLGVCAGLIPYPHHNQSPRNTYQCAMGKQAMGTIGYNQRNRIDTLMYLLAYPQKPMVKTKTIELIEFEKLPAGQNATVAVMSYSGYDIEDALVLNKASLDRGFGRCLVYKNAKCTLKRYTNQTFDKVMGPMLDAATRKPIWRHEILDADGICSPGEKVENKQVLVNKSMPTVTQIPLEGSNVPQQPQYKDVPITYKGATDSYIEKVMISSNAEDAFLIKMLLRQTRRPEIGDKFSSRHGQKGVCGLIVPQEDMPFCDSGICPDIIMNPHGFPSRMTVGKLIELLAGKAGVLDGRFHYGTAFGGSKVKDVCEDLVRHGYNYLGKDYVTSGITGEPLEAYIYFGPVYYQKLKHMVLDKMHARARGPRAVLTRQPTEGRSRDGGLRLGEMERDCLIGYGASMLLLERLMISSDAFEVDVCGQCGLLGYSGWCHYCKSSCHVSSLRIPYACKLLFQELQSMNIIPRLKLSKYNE
UniProt O43660: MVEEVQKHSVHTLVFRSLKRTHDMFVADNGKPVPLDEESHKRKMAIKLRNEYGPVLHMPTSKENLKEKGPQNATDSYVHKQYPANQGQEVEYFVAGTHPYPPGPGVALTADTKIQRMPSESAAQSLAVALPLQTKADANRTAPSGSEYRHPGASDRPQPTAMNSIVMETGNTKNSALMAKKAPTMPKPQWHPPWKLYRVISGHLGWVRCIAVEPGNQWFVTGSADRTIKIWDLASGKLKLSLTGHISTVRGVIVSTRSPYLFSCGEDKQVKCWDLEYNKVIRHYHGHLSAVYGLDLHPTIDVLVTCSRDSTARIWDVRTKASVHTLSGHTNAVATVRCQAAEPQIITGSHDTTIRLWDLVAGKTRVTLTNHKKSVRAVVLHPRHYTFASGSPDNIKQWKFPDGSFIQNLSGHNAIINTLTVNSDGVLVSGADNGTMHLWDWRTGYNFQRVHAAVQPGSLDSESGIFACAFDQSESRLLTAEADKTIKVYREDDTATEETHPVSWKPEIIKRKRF
UniProt Q99575: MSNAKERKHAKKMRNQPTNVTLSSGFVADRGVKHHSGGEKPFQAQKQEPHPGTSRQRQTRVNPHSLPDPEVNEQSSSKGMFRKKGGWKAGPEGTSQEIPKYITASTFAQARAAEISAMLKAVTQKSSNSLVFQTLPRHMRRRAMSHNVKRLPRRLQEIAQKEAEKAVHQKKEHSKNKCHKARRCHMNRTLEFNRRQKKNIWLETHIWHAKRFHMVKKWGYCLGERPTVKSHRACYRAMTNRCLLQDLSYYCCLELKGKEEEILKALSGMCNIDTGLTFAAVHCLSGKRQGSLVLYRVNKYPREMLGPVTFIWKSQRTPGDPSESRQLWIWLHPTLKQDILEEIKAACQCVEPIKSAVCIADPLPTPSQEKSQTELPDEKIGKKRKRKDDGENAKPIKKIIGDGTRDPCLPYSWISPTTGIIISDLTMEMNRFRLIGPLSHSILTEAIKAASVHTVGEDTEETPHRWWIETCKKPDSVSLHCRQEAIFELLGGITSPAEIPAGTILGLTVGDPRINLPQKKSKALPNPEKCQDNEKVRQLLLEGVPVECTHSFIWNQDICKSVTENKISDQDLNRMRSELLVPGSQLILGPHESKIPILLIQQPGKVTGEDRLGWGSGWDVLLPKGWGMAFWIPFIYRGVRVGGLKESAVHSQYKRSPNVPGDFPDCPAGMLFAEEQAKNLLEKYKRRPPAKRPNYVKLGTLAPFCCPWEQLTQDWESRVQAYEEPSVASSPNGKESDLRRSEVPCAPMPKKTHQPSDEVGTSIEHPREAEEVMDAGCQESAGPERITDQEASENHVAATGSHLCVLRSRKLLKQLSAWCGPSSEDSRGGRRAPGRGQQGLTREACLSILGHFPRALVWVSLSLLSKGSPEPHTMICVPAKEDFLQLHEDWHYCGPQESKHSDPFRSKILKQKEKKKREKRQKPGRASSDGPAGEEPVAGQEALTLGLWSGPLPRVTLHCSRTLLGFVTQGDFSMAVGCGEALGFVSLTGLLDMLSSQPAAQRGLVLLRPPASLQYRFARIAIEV

How the values were obtained:
Test in all cases: log2 fold change, soluble protein after heating vs DMSO (PISA); higher = thermal stabilisation; K562 lysate, 10 uM; active = over 0.2 and 3.5 SD of the protein, either way, in both replicates (recomputed)
[1] = compound: C#Cc1cccc(Nc2ncnc3cc(OCCOC)c(OCCOC)cc23)c1 [erlotinib]
How it was run: (§1)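 Following dounce homogenisation of K562 pellets in PBS pH 7.4 with 1 mM MgCl2, crude extract at 1 mg/mL protein was incubated for 30 min with 10 μM compound. Aliquots were then heated for 3 min over 48°C-58°C and pooled, NP-40 was added to 0.5% at 4°C, and soluble protein was recovered as the supernatant at 21,000xg for 90 min. Channel-sum-equalised TMTpro 16plex LC-MS/MS quantified this protein. Each value, from duplicates, is a log-two fold change in thermal stability relative to solvent controls.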

[2] = compound: C/C(=N\NC(=O)C1=CC(=CC=C1)S(=O)(=O)N2CCOCC2)/C3=C(C=CC(=C3)Cl)O
How it was run: as §1

[3] = compound: C1=CC(=CC=C1C2=NC3=C(N2)C=C(C=C3)C(=O)N)OC4=CC=C(C=C4)Cl
How it was run: as §1

[4] = compound: C1=CC2=C(C=CC(=C2)/C=C\3/C(=O)NC(=NCC4=CC=CS4)S3)N=C1
How it was run: as §1

[5] = compound: C1=CC2=NC=CN=C2C=C1/C=C/3\C(=O)NC(=O)S3
How it was run: as §1

[6] = compound: C1=CC=C(C=C1)C2=NC(=C(N2)C3=CC=NC=C3)C4=CC(=C(C=C4)Cl)O
How it was run: as §1

[7] = compound: C1=CC=C2C(=C1)C3=NNC4=CC=CC(=C43)C2=O
How it was run: as §1

[8] = compound: C1CCN(C1)C(=O)NC2=CC=CC(=C2)NC3=NC=C(C(=N3)NCCC4=CN=CN4)Br
How it was run: as §1

[9] = compound: C1CN(CCC1(CC2=CC=C(C=C2)Cl)N)C3=NC=NC4=C3C=CN4
How it was run: as §1

[10] = compound: C1COCCN1CCN2C3=CC=CC=C3N=C2NC(=O)C4=CC(=CC=C4)[N+](=O)[O-] [IRAK-1-4 Inhibitor I]
How it was run: as §1

[11] = compound: C=CC(=O)N1CCC[C@@H](n2nc(-c3ccc(Oc4ccccc4)cc3)c3c(N)ncnc32)C1 [ibrutinib]
How it was run: as §1

[12] = compound: CC(=O)c1cnc2ccc(-c3cc(Cl)c(O)c(Cl)c3)nc2c1N[C@H]1CC[C@H](CN(C)C)CC1
How it was run: as §1

[13] = compound: CC(C)(C)Cn1c(N)nc2ccc(-c3[nH]c(C(C)(C)C)nc3-c3ccc(F)cc3)nc21 [ralimetinib]
How it was run: as §1

[14] = compound: CC(C)(O)CC(=O)NCCn1ccc2ncnc(Nc3ccc(Oc4cccc(C(F)(F)F)c4)c(Cl)c3)c21
How it was run: as §1

[15] = compound: CC(C)C1=C2N=C(C=C(N2N=C1)NCC3=CC=CC=C3)NCCCCCCN
How it was run: as §1

[16] = compound: CC1=C(C(CC(=O)N1)C2=CC=C(C=C2)C(F)(F)F)C(=O)NC3=C(C=C4C(=C3)C=NN4)F
How it was run: as §1

[17] = compound: CC1=C(C2=C(C=C1)C(=O)C3=CC=CC=C3N2CCCN)C
How it was run: as §1

[18] = compound: CC1=C(C=C(C=C1)NC(=O)C2=CC(=CC=C2)C(C)(C)C#N)NC3=CC4=C(C=C3)N=CN(C4=O)C
How it was run: as §1

[19] = compound: CC1=C(C=C(C=C1)NC(=O)C2=CC(=CC=C2)N(C)C)NC(=O)C3=CC=C(C=C3)O
How it was run: as §1

[20] = compound: CC1=CC=C(C=C1)SC2=C3C=C(SC3=CN=C2)C(=O)N
How it was run: as §1

Measured: log2 fold change

POC5 (UniProt Q8NA72)
inactive: [1] -0.022 | [2] -0.083 | [3] -0.01 | [4] 0.069 | [5] -0.025 | [6] 0.039 | [7] -0.144 | [8] 0.045 | [9] 0.043 | [10] 0.069 | [11] 0.013 | [12] -0.063 | [13] 0.062 | [14] -0.029 | [15] 0.101 | [16] 0.015 | [17] 0.026 | [18] -0.015 | [19] 0 | [20] -0.02

POLR2A, A0A590UJN4
inactive: [1] 0.013 | [2] 0.001 | [3] 0.015 | [4] 0.003 | [5] -0.03 | [6] -0.004 | [7] -0.03 | [8] -0.014 | [9] 0.018 | [10] 0 | [11] -0.009 | [12] -0.015 | [13] -0.003 | [14] -0.006 | [15] 0.014 | [16] 0.012 | [17] 0.003 | [18] -0.042 | [19] 0.048 | [20] 0.021

PML (UniProt P29590)
inactive: [1] -0.014 | [2] 0.031 | [3] 0.012 | [4] 0.005 | [5] -0.019 | [6] -0.002 | [7] 0.019 | [8] -0.005 | [9] -0.029 | [10] -0.023 | [11] 0.011 | [12] -0.002 | [13] -0.001 | [14] -0.019 | [15] 0.002 | [16] -0.012 | [17] 0.023 | [18] 0.014 | [19] 0.004 | [20] -0.006

PNPT1 (UniProt Q8TCS8)
inactive: [1] -0.007 | [2] -0.034 | [3] 0.012 | [4] 0.007 | [5] 0 | [6] -0.016 | [7] -0.016 | [8] -0.021 | [9] 0.04 | [10] -0.006 | [11] 0.017 | [12] 0.005 | [13] -0.004 | [14] -0.017 | [15] -0.02 | [16] -0.015 | [17] 0.011 | [18] 0.038 | [19] -0.007 | [20] -0.012

POMGNT1 isoform 2 (UniProt Q8WZA1)
inactive: [1] -0.048 | [2] 0.001 | [3] -0.093 | [4] -0.028 | [5] -0.119 | [6] 0.193 | [7] -0.066 | [8] 0.011 | [9] -0.097 | [10] 0.263 | [11] 0.085 | [12] -0.071 | [13] -0.336 | [14] -0.093 | [15] 0.021 | [16] 0.019 | [17] 0.102 | [18] -0.02 | [19] 0.033 | [20] 0.022

PMF1 (UniProt Q6P1K2)
inactive: [1] -0.013 | [2] -0.044 | [3] 0.031 | [4] 0.038 | [5] -0.017 | [6] 0.013 | [7] 0.008 | [8] -0.06 | [9] 0.087 | [10] 0.009 | [11] 0.127 | [12] 0.04 | [13] 0.019 | [14] -0.074 | [15] 0.001 | [16] 0.003 | [17] 0.032 | [18] -0.032 | [19] 0.001 | [20] -0.037

PLOD1 (UniProt Q02809)
inactive: [1] -0.016 | [2] 0.005 | [3] -0.002 | [4] 0.014 | [5] 0.01 | [6] -0.025 | [7] -0.008 | [8] 0 | [9] 0.008 | [10] 0.009 | [11] 0.014 | [12] 0.007 | [13] 0.035 | [14] 0.022 | [15] -0.005 | [16] 0.023 | [17] 0.009 | [18] 0.014 | [19] 0.008 | [20] 0.03

POLR2M (UniProt P0CAP2)
inactive: [1] 0.075 | [2] -0.053 | [3] 0.014 | [4] 0.034 | [5] -0.013 | [6] 0.027 | [7] -0.045 | [8] -0.182 | [9] -0.002 | [10] 0.026 | [11] -0.011 | [12] 0.014 | [13] -0.018 | [14] -0.042 | [15] -0.001 | [16] -0.014 | [17] -0.046 | [18] -0.055 | [19] -0.008 | [20] 0.007

POP4 (UniProt O95707)
inactive: [1] -0.024 | [2] -0.016 | [3] 0.033 | [4] -0.008 | [5] 0 | [6] 0.028 | [7] -0.004 | [8] 0.006 | [9] -0.032 | [10] -0.017 | [11] -0.057 | [12] 0.002 | [13] 0.049 | [14] -0.044 | [15] -0.028 | [16] -0.04 | [17] 0.021 | [18] 0.028 | [19] -0.093 | [20] 0.047

PPIB (UniProt P23284)
inactive: [1] 0 | [2] 0.017 | [3] 0.008 | [4] -0.042 | [5] -0.018 | [6] -0.01 | [7] -0.003 | [8] -0.007 | [9] 0.001 | [10] -0.001 | [11] 0.015 | [12] -0.008 | [13] 0.007 | [14] -0.002 | [15] -0.004 | [16] -0.032 | [17] -0.008 | [18] -0.028 | [19] -0.011 | [20] -0.006

PPCS (UniProt Q9HAB8)
inactive: [1] -0.03 | [2] -0.108 | [3] -0.009 | [4] -0.061 | [5] 0.021 | [6] -0.017 | [7] -0.043 | [8] -0.045 | [9] 0.003 | [10] -0.009 | [11] 0.029 | [12] 0.028 | [13] 0.027 | [14] -0.004 | [15] -0.069 | [16] 0.001 | [17] 0.013 | [18] 0.026 | [19] -0.024 | [20] 0.022

PPAT (UniProt Q06203)
inactive: [1] -0.014 | [2] -0.034 | [3] 0.027 | [4] -0.011 | [5] 0.014 | [6] 0.012 | [7] 0.024 | [8] -0.013 | [9] -0.001 | [10] 0.044 | [11] 0.028 | [12] -0.003 | [13] 0.02 | [14] 0.021 | [15] -0.014 | [16] -0.043 | [17] -0.005 | [18] 0.006 | [19] -0.026 | [20] -0.007

Two consecutive records already listed, for reference:
POP4 (UniProt O95707)
inactive: [1] -0.024 | [2] -0.016 | [3] 0.033 | [4] -0.008 | [5] 0 | [6] 0.028 | [7] -0.004 | [8] 0.006 | [9] -0.032 | [10] -0.017 | [11] -0.057 | [12] 0.002 | [13] 0.049 | [14] -0.044 | [15] -0.028 | [16] -0.04 | [17] 0.021 | [18] 0.028 | [19] -0.093 | [20] 0.047

PPIB (UniProt P23284)
inactive: [1] 0 | [2] 0.017 | [3] 0.008 | [4] -0.042 | [5] -0.018 | [6] -0.01 | [7] -0.003 | [8] -0.007 | [9] 0.001 | [10] -0.001 | [11] 0.015 | [12] -0.008 | [13] 0.007 | [14] -0.002 | [15] -0.004 | [16] -0.032 | [17] -0.008 | [18] -0.028 | [19] -0.011 | [20] -0.006

Remaining list, next part

POLB (UniProt P06746)
inactive: [1] 0.012 | [2] 0.009 | [3] 0.075 | [4] 0.069 | [5] -0.022 | [6] 0.019 | [7] -0.061 | [8] -0.019 | [9] 0.026 | [10] -0.062 | [11] -0.011 | [12] -0.003 | [13] 0.068 | [14] -0.042 | [15] 0.083 | [16] 0.017 | [17] -0.006 | [18] -0.027 | [19] -0.034 | [20] -0.003

POLR3B (UniProt Q9NW08)
inactive: [1] 0.019 | [2] 0.016 | [3] -0.003 | [4] 0 | [5] -0.02 | [6] 0.012 | [7] -0.01 | [8] -0.01 | [9] -0.01 | [10] -0.023 | [11] 0.003 | [12] 0.005 | [13] 0.008 | [14] -0.029 | [15] -0.01 | [16] -0.012 | [17] -0.046 | [18] -0.022 | [19] 0.02 | [20] 0.034

PLRG1 (UniProt O43660)
inactive: [1] -0.128 | [2] -0.071 | [3] 0.025 | [4] 0.021 | [5] -0.066 | [6] 0.026 | [7] -0.041 | [8] 0.012 | [9] -0.033 | [10] -0.008 | [11] -0.015 | [12] -0.024 | [13] 0.011 | [14] -0.01 | [15] -0.015 | [16] -0.041 | [17] 0.02 | [18] -0.014 | [19] 0.019 | [20] -0.011

POP1 (UniProt Q99575)
inactive: [1] -0.023 | [2] -0.05 | [3] 0.004 | [4] -0.003 | [5] -0.011 | [6] -0.002 | [7] 0.031 | [8] 0.007 | [9] -0.008 | [10] 0.021 | [11] 0.045 | [12] -0.021 | [13] -0.005 | [14] -0.044 | [15] -0.049 | [16] 0.01 | [17] -0.017 | [18] 0.032 | [19] -0.005 | [20] -0.001
